From PMC8558332 come the findings set out here.

Series [1] concerns MdABI5 (Malus domestica). Description: competition with a labelled probe. As to conditions: unlabeled mutant competitor against labeled N1; EMSA as described by Xie et al. (ref. 34); pH and temperature not stated; recombinant protein; label: unlabeled competitor.
In series [2] the test system is MdABI5 (Malus domestica). The series is described as follows: EMSA. The conditions noted are these: EMSA as described by Xie et al. (ref. 34), pH and temperature not stated, recombinant protein, label: 3'-biotin.
Where [3] appears, read: only MdNRT1.5 complex strongly detected.

For at least one entry, the source does not settle the construct or the ends of the probe. For some of these results: A negative result means that nothing was seen under these conditions. For some of these results: The comparison behind a weaker result is the experiment's own reference, which may not be listed here. For some of these results: At least one verdict was read from the data and is not stated in words by the source.

For the sequence “ACTCAGCCAGACAAATTGACAAACCACAATATTGGATC (double strand) [MdNRT1.5 promoter mutant probe (CACGTA to ACAAAC)]”, in the series on MdABI5 (Malus domestica) [1], the binding result was “no binding”. In the case of “ACTCAGCCAGACAAATTGCACGTACACAATATTGGATC (double strand) [MdNRT1.5 promoter ABRE probe]”, in the series on MdABI5 (Malus domestica) [2] (complex decreases with increasing unlabeled wild-type competitor), the binding result is on record as “binds”. “GTTTCACCTACTCCCCACACGTTCTATCTCTCCCCC (double strand) [MdNRT1.2 promoter probe]”: the binding result in the series with MdABI5 (Malus domestica) [2] (setting [3]) is “binds more weakly”. The same measure, in the same setting: then “TATCAAAAGGTCCTTTTCACGTGGGAATCAAATAGCAT (double strand) [MdNRT1.8 promoter probe]”, with “binds more weakly”; and “TCGTTTCTGCCAGGTGTTGACACGTGTCCTATTTGATGA (double strand) [MdNRT1.9 promoter probe 1]”, with “binds more weakly”. Consider “TTTCGTTGAGTCACACGCTACGTGTAAAATTTATGTAA (double strand) [MdNRT1.9 promoter probe 2]”, for which the binding result in the series on MdABI5 (Malus domestica) [2] (setting [3]) is “binds more weakly”. Still for that read-out and setting: then “TTTGCCACGTGGCACAAATTTGGCTACCACGTCAACTC (double strand) [MdNRT2.4 promoter probe]”, with “binds more weakly”.
